Laboratory results taken from the supplement of paper PMC10849652.
The other results are listed elsewhere or left out.

The chains behind the UniProt entries cited, without tags or fusion partners. Where a name states a change or a piece, a line headed by the entry shows the natural chain unless it says otherwise.
UniProt P36941: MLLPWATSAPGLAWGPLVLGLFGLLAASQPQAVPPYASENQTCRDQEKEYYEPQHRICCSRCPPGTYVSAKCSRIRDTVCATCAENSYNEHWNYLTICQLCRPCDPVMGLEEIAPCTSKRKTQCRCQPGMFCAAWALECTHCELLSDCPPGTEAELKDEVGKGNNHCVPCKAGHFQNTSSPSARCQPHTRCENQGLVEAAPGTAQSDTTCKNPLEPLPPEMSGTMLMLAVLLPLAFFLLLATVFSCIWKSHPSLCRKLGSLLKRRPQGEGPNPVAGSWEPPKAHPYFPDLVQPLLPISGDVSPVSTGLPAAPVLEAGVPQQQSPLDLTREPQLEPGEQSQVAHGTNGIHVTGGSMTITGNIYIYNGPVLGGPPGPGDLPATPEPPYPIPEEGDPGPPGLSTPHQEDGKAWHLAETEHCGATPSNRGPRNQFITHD
UniProt Q9UPY8, whole entry, looked up: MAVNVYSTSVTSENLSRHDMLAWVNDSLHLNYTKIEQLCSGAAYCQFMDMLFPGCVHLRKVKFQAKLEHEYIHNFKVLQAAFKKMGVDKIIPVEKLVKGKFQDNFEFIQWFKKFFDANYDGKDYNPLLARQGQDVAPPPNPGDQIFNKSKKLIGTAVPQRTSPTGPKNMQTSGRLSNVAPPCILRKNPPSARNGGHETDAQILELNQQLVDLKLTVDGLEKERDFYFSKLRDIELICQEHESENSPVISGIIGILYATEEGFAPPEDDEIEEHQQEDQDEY
UniProt Q13164: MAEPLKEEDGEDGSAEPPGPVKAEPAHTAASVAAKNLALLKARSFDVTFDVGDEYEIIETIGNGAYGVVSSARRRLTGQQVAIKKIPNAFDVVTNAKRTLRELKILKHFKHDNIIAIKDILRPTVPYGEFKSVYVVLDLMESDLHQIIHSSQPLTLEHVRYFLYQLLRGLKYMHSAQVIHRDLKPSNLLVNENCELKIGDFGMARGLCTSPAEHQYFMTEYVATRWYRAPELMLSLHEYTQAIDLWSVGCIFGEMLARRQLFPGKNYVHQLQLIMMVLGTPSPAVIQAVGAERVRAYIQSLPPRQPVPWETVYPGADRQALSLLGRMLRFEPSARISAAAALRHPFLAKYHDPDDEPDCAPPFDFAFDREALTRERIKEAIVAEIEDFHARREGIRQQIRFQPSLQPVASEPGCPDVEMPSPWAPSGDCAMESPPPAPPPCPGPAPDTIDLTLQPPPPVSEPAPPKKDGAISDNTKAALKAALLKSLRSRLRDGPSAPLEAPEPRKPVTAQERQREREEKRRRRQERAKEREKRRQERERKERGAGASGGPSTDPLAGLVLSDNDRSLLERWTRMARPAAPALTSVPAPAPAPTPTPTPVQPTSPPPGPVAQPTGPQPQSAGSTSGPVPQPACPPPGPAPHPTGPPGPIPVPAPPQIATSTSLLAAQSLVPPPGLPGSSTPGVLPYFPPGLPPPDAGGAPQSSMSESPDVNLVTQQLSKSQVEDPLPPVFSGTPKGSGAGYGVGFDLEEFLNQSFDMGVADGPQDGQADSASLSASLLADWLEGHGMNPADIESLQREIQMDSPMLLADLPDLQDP
UniProt Q5SRI9: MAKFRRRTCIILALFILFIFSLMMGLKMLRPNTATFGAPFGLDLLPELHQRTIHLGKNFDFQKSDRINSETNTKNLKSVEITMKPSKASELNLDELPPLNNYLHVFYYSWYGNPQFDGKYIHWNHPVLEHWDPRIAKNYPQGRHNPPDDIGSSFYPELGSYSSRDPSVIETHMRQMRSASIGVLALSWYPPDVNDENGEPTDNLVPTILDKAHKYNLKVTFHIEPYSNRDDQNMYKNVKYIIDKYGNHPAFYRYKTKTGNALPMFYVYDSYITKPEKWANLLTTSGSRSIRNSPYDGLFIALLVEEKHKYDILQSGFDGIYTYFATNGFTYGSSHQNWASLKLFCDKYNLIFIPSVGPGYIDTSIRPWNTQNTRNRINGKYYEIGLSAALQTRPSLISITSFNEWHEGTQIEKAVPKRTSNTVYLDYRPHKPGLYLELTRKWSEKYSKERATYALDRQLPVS
UniProt Q7Z3D4: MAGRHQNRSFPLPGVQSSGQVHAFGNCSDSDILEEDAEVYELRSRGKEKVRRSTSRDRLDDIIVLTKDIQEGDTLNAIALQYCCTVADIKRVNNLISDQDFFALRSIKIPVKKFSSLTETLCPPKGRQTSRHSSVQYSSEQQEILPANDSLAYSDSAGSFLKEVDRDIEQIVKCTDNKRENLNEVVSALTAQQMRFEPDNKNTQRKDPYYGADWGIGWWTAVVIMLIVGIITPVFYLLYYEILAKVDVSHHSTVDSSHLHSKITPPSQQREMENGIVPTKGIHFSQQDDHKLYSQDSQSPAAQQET
UniProt Q5TCQ9: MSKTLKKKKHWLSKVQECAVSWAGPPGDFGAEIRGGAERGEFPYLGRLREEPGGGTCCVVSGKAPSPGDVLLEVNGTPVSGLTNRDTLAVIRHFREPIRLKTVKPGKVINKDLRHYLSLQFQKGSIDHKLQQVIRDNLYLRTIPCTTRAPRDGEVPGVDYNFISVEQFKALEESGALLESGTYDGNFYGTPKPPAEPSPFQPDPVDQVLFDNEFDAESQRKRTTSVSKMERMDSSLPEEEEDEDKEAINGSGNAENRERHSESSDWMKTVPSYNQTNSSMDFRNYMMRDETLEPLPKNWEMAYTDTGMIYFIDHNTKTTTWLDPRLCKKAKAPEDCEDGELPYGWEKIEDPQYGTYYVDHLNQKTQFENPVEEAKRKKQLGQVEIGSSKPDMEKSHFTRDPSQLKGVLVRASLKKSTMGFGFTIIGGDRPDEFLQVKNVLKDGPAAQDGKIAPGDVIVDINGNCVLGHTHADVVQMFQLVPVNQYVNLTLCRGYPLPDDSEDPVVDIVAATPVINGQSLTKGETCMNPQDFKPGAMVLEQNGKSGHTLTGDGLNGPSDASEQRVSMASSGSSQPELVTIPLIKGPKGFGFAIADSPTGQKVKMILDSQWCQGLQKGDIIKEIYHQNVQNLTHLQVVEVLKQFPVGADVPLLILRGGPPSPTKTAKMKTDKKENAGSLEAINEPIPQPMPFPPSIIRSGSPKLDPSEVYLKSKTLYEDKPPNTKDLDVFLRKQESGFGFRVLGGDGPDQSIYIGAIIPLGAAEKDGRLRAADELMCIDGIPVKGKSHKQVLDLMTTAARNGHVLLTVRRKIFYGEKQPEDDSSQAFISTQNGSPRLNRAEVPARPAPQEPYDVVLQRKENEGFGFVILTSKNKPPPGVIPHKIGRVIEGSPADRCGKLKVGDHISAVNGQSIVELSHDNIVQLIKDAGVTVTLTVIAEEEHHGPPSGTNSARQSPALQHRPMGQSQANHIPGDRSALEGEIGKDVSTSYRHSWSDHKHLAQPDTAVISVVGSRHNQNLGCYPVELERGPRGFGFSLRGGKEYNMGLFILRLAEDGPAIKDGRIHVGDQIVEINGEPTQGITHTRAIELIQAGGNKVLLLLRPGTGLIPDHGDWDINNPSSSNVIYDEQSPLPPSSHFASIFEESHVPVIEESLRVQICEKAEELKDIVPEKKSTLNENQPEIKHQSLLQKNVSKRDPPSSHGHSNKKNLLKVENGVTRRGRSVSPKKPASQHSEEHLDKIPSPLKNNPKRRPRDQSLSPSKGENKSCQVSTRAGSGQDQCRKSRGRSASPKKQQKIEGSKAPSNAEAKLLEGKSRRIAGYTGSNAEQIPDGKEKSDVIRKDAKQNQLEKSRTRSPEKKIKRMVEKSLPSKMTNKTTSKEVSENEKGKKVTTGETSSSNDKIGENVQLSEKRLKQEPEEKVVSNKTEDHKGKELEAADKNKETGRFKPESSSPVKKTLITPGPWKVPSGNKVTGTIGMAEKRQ
UniProt Q8WV07: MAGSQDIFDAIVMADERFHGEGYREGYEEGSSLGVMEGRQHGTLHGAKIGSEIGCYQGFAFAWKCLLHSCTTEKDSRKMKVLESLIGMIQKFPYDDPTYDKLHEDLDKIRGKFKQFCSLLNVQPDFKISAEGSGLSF
UniProt P43357, whole entry, looked up: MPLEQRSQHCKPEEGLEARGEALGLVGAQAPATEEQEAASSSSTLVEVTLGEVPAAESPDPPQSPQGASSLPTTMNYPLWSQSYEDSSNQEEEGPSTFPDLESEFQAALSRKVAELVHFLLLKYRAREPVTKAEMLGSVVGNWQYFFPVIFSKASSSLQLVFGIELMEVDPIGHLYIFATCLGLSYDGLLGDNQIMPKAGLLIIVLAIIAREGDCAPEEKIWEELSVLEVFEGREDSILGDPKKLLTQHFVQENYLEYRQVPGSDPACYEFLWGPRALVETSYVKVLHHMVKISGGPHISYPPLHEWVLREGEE
UniProt O95382: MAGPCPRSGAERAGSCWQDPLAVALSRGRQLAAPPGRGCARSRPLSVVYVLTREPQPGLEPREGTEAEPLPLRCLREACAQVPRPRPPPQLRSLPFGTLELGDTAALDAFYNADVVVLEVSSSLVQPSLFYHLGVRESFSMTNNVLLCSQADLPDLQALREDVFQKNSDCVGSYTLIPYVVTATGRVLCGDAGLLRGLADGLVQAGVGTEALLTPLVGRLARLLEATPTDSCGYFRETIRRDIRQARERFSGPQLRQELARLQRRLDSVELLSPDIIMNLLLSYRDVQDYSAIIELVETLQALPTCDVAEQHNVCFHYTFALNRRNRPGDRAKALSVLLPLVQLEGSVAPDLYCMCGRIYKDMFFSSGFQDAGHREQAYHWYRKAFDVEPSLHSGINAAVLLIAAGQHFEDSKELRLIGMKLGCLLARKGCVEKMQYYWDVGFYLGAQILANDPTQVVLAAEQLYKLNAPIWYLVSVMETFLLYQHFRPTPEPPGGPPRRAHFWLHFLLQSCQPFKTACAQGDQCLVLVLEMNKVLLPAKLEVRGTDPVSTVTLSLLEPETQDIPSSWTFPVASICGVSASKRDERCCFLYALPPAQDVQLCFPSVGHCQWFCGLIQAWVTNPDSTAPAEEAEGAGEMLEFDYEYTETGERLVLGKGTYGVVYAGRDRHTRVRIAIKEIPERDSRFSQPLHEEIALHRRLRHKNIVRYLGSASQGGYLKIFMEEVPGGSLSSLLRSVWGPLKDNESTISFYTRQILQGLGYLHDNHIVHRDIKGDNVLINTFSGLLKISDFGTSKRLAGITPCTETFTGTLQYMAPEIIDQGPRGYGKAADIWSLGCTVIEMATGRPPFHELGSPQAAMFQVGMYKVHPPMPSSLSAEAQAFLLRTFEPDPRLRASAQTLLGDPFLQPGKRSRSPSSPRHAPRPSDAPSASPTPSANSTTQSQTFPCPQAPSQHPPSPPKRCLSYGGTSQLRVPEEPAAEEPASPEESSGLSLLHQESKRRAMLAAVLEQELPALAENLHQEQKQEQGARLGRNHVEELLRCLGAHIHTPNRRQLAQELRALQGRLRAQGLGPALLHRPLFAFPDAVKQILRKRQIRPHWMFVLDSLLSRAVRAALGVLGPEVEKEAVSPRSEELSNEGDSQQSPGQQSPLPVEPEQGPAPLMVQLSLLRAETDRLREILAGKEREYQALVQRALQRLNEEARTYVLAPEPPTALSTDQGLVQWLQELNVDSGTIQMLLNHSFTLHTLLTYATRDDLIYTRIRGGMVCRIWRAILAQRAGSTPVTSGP
UniProt Q8IVH8: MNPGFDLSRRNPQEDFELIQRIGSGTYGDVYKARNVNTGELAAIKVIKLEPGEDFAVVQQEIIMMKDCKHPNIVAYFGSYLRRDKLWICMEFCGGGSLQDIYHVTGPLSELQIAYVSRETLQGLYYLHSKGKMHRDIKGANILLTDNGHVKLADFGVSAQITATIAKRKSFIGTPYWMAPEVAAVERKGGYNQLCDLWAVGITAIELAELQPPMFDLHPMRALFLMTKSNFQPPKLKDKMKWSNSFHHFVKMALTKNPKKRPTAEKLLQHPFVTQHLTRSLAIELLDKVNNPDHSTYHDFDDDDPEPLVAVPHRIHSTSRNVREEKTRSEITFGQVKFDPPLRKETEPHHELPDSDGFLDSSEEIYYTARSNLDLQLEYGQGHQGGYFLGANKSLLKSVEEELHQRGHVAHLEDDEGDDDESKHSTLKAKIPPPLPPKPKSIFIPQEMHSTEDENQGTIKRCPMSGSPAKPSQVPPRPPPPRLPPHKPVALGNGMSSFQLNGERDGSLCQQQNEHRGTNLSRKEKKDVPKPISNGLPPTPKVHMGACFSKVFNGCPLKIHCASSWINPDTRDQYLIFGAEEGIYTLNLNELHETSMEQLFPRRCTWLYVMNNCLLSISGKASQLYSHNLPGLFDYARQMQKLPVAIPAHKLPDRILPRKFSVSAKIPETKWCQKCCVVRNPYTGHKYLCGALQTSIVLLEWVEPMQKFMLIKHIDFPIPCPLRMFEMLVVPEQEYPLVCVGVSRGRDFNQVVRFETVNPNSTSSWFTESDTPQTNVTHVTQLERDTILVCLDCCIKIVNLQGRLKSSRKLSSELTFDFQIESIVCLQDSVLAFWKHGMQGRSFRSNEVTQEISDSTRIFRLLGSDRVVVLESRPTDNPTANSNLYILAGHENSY

What was measured:
Experiment in all cases: log2 fold change, soluble protein after heating vs DMSO (PISA); higher = thermal stabilisation; K562 lysate, 10 uM; active = over 0.2 and 3.5 SD of the protein, either way, in both replicates (recomputed)
[1] = compound: CS(=O)(=O)CCNCc1ccc(-c2ccc3ncnc(Nc4ccc(OCc5cccc(F)c5)c(Cl)c4)c3c2)o1 [lapatinib]
In short: (§1)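 Thermal stability, expressed as log-two fold change relative to solvent controls, is given from duplicates. Crude K562 extract in PBS pH 7.4 with 1 mM MgCl2, at 1 mg/mL protein, was treated with 10 μM compound for 30 min and heated in aliquots for 3 min across 48°C-58°C. After pooling, adjustment to 0.5% NP-40 at 4°C and centrifugation at 21,000xg for 90 min, supernatant protein was measured by TMTpro 16plex LC-MS/MS with channel sums equalised.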

[2] = compound: CS(=O)(=O)N1CCN(Cc2cc3nc(-c4cccc5[nH]ncc45)nc(N4CCOCC4)c3s2)CC1 [pictilisib]
In short: as §1

[3] = compound: C[C@@H](Oc1cc(-c2cnn(C3CCNCC3)c2)cnc1N)c1c(Cl)ccc(F)c1Cl [crizotinib]
In short: as §1

[4] = compound: C[C@H](C1=CC=C(C=C1)C(=O)NC2=C3C=CNC3=NC=C2)N
In short: as §1

[5] = compound: Cc1cc(Nc2cc(CN3CCOCC3)c3nc(C)c(Cc4ccc(Cl)cc4F)n3n2)n[nH]1 [gandotinib]
In short: as §1

[6] = compound: Cc1ccc(-n2nc(C(C)(C)C)cc2NC(=O)Nc2ccc(OCCN3CCOCC3)c3ccccc23)cc1 [doramapimod]
In short: as §1

[7] = compound: Cc1ccc(NC(=O)c2ccc(CN3CC[C@H](N(C)C)C3)c(C(F)(F)F)c2)cc1Nc1nccc(-c2cncnc2)n1 [bafetinib]
In short: as §1

[8] = compound: Cc1cccc(CC(=O)N2CCc3c2ccc(-c2cn(C)c4ncnc(N)c24)c3F)n1
In short: as §1

[9] = compound: Cc1cn(-c2cc(NC(=O)c3ccc(C)c(Nc4nccc(-c5cccnc5)n4)c3)cc(C(F)(F)F)c2)cn1 [nilotinib]
In short: as §1

[10] = compound: Cc1nc(Nc2n[nH]c3c2CN(C(=O)N[C@H](CN(C)C)c2ccccc2)C3(C)C)c2sccc2n1
In short: as §1

[11] = compound: Cc1ncc(-c2ccnc(Nc3ccc(S(C)(=O)=O)cc3)n2)n1C(C)C
In short: as §1

[12] = compound: Cn1cc(CNCC2CCN(c3ncc(C(=O)NO)cn3)CC2)c2ccccc21 [quisinostat]
In short: as §1

[13] = compound: Cn1cncc1[C@@](N)(c1ccc(Cl)cc1)c1ccc2c(c1)c(-c1cccc(Cl)c1)cc(=O)n2C [tipifarnib]
In short: as §1

[14] = compound: NC(=O)Nc1cc(-c2cccc(F)c2)sc1C(=O)N[C@H]1CCCNC1
In short: as §1

[15] = compound: NC(=O)c1cnc(N[C@@H]2CCCC[C@@H]2N)nc1Nc1cccc(-n2nccn2)c1
In short: as §1

[16] = compound: C[C@H](Nc1ncnc2nc[nH]c12)c1cc2cccc(Cl)c2c(=O)n1-c1ccccc1 [duvelisib]
In short: as §1

[17] = compound: Cc1cc(Nc2cc(N3CCN(C)CC3)nc(Sc3ccc(NC(=O)C4CC4)cc3)n2)n[nH]1 [tozasertib]
In short: as §1

[18] = compound: Cc1nc(Nc2ncc(C(=O)Nc3c(C)cccc3Cl)s2)cc(N2CCN(CCO)CC2)n1 [dasatinib]
In short: as §1

[19] = compound: Cn1cc(-c2ccc3c(c2)CCN3C(=O)Cc2cccc(C(F)(F)F)c2)c2c(N)ncnc21
In short: as §1

[20] = compound: NC1(c2ccc(-c3nc4ccn5c(=O)[nH]nc5c4cc3-c3ccccc3)cc2)CCC1
In short: as §1

Target	log2 fold change [1]	log2 fold change [2]	log2 fold change [3]	log2 fold change [4]	log2 fold change [5]	log2 fold change [6]	log2 fold change [7]	log2 fold change [8]	log2 fold change [9]	log2 fold change [10]	log2 fold change [11]	log2 fold change [12]	log2 fold change [13]	log2 fold change [14]	log2 fold change [15]	log2 fold change [16]	log2 fold change [17]	log2 fold change [18]	log2 fold change [19]	log2 fold change [20]
MACF1 (UniProt E9PLY5)	inactive: -0.137	inactive: 0.001	inactive: -0.015	inactive: -0.3	inactive: 0.042	inactive: -0.167	inactive: -0.064	inactive: 0.328	inactive: 0.002	inactive: 0.022	inactive: 0.108	inactive: 0.084	inactive: 0.07	inactive: 0.108	inactive: 0.022	–	–	–	–	–
MAP4 isoform 5 (UniProt P27816)	inactive: -0.089	inactive: -0.008	inactive: -0.034	–	–	inactive: -0.061	inactive: 0.081	–	inactive: -0.168	inactive: -0.029	inactive: 0.291	inactive: -0.036	inactive: -0.101	inactive: 0.03	inactive: -0.02	inactive: 0.159	inactive: 0.008	inactive: -0.371	inactive: 0.029	inactive: -0.213
LTBR (UniProt P36941)	inactive: 0.034	inactive: -0.169	inactive: -0.141	inactive: -0.177	inactive: 0.097	inactive: -0.185	inactive: -0.006	inactive: 0.103	–	–	–	inactive: 0.06	–	inactive: 0.016	inactive: 0.086	–	–	–	–	inactive: -0.002
MAPK14 (UniProt Q16539)	inactive: -0.047	inactive: -0.004	inactive: -0.094	inactive: -0.034	inactive: -0.037	–	active: 1.03	inactive: 0.015	inactive: 0.563	inactive: 0.038	inactive: 0.069	inactive: -0.025	inactive: -0.137	inactive: -0.012	inactive: -0.005	inactive: -0.026	inactive: 0.009	active: 0.984	inactive: -0.029	inactive: -0.042
LYPLA1, A0A087X1K9	inactive: 0.266	–	inactive: -0.008	inactive: -0.097	inactive: 0.18	inactive: 0.232	–	inactive: 0.356	–	–	–	inactive: -0.261	–	inactive: 0.026	inactive: -0.067	–	inactive: 0.134	–	–	–
MAP4K4 isoform 6 (UniProt O95819)	inactive: -0.002	inactive: -0.092	–	–	–	–	inactive: 0.016	–	–	–	–	–	–	–	inactive: 0.021	inactive: -0.038	inactive: 0.102	inactive: -0.01	inactive: 0.115	inactive: 0.083
MAP4K4 isoform 3 (UniProt O95819)	inactive: -0.061	inactive: -0.049	–	inactive: 0.201	inactive: -0.088	inactive: 0.087	inactive: 0.03	inactive: -0.01	inactive: -0.108	inactive: 0.03	inactive: 0.002	inactive: -0.103	inactive: 0.038	active: 0.27	inactive: 0.02	inactive: 0.078	inactive: 0.014	inactive: -0.103	inactive: 0.006	inactive: -0.032
MAPRE3 isoform 2 (UniProt Q9UPY8)	inactive: 0.135	inactive: -0.37	inactive: -0.138	inactive: 0.092	inactive: 0.08	inactive: 0.037	inactive: 0.112	inactive: -0.077	–	–	–	inactive: -0.169	–	inactive: 0.094	inactive: 0.124	–	–	–	–	inactive: -0.184
MAPK7 (UniProt Q13164)	inactive: -0.145	–	inactive: 0.246	inactive: -0.083	inactive: 0.161	inactive: 0.01	–	inactive: -0.099	–	–	–	inactive: -0.156	–	inactive: -0.044	inactive: 0.028	–	inactive: -0.029	–	–	inactive: 0.011
MANEA (UniProt Q5SRI9)	inactive: -0.01	inactive: 0.008	inactive: -0.023	active: -0.464	active: 0.365	inactive: 0.034	inactive: 0.007	inactive: 0.278	–	–	–	inactive: 0.046	–	inactive: 0.05	inactive: 0.01	inactive: 0.036	inactive: 0.035	inactive: -0.003	inactive: 0.046	inactive: -0.044
LYSMD3 (UniProt Q7Z3D4)	inactive: -0.039	inactive: -0.039	inactive: -0.018	inactive: -0.273	inactive: 0.307	inactive: 0.041	inactive: -0.057	inactive: 0.23	inactive: -0.096	inactive: -0.293	inactive: 0.171	inactive: -0.037	active: 0.352	inactive: -0.022	inactive: 0.057	inactive: 0.066	inactive: 0.058	inactive: -0.083	inactive: -0.068	inactive: 0.023
MAGI3 isoform 1 (UniProt Q5TCQ9)	inactive: -0.041	inactive: 0.006	–	inactive: -0.029	inactive: -0.119	–	inactive: 0	inactive: 0.07	inactive: -0.212	inactive: -0.128	inactive: 0.081	–	inactive: 0	–	inactive: 0.018	inactive: 0.128	inactive: -0.001	inactive: 0.012	inactive: 0.02	inactive: 0.052
LTO1 (UniProt Q8WV07)	–	inactive: -0.191	inactive: 0.053	inactive: 0.052	inactive: -0.06	inactive: 0.014	inactive: -0.031	inactive: -0.021	inactive: 0.038	inactive: -0.099	inactive: 0.194	inactive: 0.066	inactive: 0.237	inactive: -0.023	–	inactive: 0.008	inactive: 0.138	inactive: 0.037	inactive: -0.102	inactive: -0.035
MAGEA3 (UniProt P43357)	–	–	inactive: -0.121	–	–	inactive: -0.016	–	–	–	–	–	inactive: -0.019	–	inactive: -0.023	–	–	inactive: -0.231	–	–	–
MAML1 (UniProt Q92585)	–	inactive: 0.161	inactive: 0.088	inactive: -0.005	inactive: -0.031	inactive: -0.138	inactive: -0.05	inactive: 0.023	inactive: -0.094	inactive: 0.015	inactive: -0.109	inactive: 0.015	inactive: -0.028	inactive: 0.031	–	inactive: 0.123	inactive: -0.017	inactive: 0.046	inactive: 0	inactive: 0.083
MAP3K6 (UniProt O95382)	–	–	–	–	–	–	–	–	inactive: 0.122	inactive: -0.023	inactive: 0.006	–	inactive: -0.011	–	–	–	inactive: -0.061	–	–	–
MAGI1 (UniProt H7C4S7)	–	–	–	–	–	–	–	–	–	–	–	–	–	–	–	inactive: 0.041	–	inactive: -0.182	inactive: 0.095	–
MAP4K3 (UniProt Q8IVH8)	–	inactive: -0.114	–	–	–	inactive: -0.041	inactive: -0.028	–	–	–	–	inactive: 0.002	–	inactive: 0.602	–	inactive: 0.183	–	inactive: 0.401	inactive: -0.774	–
LTBP4 isoform 2 (UniProt Q8N2S1)	–	–	inactive: 0.195	–	–	inactive: 0.079	–	–	–	–	–	inactive: 0.047	–	inactive: 0	–	–	–	–	–	–

Given as a markdown table: entries from further up.

| Target | log2 fold change [1] | log2 fold change [2] | log2 fold change [3] | log2 fold change [4] | log2 fold change [5] | log2 fold change [6] | log2 fold change [7] | log2 fold change [8] | log2 fold change [9] | log2 fold change [10] | log2 fold change [11] | log2 fold change [12] | log2 fold change [13] | log2 fold change [14] | log2 fold change [15] | log2 fold change [16] | log2 fold change [17] | log2 fold change [18] | log2 fold change [19] | log2 fold change [20] |
| --- | --- | --- | --- | --- | --- | --- | --- | --- | --- | --- | --- | --- | --- | --- | --- | --- | --- | --- | --- | --- |
| MAP3K6 (UniProt O95382) | – | – | – | – | – | – | – | – | inactive: 0.122 | inactive: -0.023 | inactive: 0.006 | – | inactive: -0.011 | – | – | – | inactive: -0.061 | – | – | – |
| MAGI1 (UniProt H7C4S7) | – | – | – | – | – | – | – | – | – | – | – | – | – | – | – | inactive: 0.041 | – | inactive: -0.182 | inactive: 0.095 | – |
